Results taken from PubChem BioAssay (EPA / NIEHS).
Inconclusive means that the source gave no clear call. Such entries were picked first, then a sample of the others. Where the call is inconclusive, the potency comes from a doubtful curve fit. The source made the active and inactive calls. Rule for the calls: active = hit-call score of the fitted dose curve at least 0.9, where 1 is the maximum; inconclusive = response in the unintended direction; inactive = score below 0.9.

Sequences of proteins named here, by UniProt entry; tags and fusion partners are left off. A change or cut given only in a name is not applied to a line headed by its entry.
UniProt P41235: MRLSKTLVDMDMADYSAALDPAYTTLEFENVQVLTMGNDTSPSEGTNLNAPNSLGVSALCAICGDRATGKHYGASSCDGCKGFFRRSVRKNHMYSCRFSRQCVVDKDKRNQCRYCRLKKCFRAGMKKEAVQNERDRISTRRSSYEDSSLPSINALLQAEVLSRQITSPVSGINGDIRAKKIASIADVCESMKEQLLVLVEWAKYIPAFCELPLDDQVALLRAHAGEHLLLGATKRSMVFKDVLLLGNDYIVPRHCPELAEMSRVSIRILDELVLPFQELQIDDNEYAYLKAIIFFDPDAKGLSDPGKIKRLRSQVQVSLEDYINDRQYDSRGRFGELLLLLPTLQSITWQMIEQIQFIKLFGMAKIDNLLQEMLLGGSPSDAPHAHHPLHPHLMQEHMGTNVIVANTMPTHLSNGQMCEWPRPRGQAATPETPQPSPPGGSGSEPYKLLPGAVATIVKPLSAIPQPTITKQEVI
UniProt P43354, whole entry, looked up: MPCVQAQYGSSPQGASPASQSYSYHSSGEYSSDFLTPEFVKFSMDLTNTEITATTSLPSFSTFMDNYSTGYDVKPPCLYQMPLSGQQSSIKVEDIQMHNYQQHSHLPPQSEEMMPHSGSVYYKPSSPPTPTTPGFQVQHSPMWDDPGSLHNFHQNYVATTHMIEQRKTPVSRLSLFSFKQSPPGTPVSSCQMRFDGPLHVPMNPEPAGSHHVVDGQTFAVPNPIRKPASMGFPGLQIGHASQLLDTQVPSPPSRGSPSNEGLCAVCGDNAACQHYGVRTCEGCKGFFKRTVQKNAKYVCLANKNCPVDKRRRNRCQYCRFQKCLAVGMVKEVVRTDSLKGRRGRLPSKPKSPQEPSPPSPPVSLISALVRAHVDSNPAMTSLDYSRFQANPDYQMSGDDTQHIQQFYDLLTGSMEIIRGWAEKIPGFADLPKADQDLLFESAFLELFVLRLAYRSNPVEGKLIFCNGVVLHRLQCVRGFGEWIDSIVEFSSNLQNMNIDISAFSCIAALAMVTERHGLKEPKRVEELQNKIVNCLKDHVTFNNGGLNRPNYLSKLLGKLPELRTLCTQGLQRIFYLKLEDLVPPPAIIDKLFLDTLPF
UniProt Q07869: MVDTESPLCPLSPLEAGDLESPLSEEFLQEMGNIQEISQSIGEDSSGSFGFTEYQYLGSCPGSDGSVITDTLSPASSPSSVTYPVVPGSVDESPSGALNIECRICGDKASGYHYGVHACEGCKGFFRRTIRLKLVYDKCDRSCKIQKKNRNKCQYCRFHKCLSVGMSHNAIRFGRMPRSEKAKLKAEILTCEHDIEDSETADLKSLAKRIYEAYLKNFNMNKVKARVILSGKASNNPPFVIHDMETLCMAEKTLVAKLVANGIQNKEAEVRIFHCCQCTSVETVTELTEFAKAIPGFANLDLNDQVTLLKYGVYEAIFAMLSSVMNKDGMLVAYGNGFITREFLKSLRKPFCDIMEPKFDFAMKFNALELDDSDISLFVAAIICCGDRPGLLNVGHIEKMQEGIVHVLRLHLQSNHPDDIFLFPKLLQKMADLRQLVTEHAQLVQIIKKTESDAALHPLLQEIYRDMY
UniProt P13631, whole entry, looked up: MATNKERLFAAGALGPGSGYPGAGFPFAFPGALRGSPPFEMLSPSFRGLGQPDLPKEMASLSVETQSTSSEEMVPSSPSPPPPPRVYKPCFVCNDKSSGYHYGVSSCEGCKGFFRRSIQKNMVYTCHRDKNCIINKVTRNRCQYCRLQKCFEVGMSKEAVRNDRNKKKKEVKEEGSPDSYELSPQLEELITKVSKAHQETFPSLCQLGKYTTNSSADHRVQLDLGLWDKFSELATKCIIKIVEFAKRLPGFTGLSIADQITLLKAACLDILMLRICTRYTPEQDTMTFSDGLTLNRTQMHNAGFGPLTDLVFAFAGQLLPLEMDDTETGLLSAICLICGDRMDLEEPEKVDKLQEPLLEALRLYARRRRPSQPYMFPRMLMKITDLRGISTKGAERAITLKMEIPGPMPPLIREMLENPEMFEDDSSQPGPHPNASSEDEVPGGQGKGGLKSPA
UniProt P51449: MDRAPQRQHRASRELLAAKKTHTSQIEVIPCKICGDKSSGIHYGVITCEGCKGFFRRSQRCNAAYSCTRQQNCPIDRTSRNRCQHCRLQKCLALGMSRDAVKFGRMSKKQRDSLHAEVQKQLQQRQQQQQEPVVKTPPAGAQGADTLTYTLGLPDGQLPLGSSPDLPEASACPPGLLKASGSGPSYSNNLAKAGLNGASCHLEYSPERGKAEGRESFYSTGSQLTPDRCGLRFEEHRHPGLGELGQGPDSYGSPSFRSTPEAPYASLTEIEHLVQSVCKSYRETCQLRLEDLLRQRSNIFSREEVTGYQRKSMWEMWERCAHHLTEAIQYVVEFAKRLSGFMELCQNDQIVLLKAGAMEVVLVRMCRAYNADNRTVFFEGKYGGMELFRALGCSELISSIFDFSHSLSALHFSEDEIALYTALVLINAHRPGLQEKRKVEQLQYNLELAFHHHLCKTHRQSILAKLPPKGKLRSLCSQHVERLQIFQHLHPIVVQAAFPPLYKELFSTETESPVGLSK
UniProt P28702: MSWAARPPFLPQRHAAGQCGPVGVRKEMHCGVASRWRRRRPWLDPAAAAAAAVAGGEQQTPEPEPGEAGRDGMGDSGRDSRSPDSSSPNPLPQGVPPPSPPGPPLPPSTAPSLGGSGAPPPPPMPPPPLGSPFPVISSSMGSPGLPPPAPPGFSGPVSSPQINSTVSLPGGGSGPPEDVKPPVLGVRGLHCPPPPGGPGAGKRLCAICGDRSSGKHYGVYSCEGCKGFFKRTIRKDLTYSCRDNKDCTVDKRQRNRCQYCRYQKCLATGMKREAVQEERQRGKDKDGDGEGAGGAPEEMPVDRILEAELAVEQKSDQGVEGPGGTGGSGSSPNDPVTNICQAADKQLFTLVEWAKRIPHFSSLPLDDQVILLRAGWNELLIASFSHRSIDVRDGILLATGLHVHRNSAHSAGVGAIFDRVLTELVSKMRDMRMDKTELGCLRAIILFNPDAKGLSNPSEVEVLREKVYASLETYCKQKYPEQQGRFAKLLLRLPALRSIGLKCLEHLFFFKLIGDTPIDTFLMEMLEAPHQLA
UniProt P04637, whole entry, looked up: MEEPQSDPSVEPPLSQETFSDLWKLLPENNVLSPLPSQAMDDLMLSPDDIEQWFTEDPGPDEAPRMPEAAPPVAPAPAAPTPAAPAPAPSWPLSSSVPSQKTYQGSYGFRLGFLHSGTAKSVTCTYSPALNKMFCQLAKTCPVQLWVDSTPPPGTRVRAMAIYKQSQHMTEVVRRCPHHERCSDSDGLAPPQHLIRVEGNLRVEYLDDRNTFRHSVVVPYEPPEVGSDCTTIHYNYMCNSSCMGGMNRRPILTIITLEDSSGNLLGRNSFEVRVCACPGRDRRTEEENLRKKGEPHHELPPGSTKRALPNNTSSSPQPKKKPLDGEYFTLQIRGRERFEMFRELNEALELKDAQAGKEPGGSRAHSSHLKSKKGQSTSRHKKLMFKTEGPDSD
UniProt Q13133, whole entry, looked up: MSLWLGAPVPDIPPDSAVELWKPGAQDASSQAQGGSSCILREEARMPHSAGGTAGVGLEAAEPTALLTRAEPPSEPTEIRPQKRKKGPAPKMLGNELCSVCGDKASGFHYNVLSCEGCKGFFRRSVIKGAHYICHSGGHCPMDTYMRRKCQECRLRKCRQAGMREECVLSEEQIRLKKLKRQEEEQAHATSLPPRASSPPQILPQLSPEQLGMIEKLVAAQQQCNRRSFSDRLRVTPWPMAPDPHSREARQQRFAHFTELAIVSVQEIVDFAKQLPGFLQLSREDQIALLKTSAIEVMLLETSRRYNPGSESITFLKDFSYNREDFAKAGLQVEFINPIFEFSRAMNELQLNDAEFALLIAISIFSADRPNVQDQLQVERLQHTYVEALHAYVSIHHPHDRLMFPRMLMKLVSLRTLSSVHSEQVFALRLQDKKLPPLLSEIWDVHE
UniProt P55055, whole entry, looked up: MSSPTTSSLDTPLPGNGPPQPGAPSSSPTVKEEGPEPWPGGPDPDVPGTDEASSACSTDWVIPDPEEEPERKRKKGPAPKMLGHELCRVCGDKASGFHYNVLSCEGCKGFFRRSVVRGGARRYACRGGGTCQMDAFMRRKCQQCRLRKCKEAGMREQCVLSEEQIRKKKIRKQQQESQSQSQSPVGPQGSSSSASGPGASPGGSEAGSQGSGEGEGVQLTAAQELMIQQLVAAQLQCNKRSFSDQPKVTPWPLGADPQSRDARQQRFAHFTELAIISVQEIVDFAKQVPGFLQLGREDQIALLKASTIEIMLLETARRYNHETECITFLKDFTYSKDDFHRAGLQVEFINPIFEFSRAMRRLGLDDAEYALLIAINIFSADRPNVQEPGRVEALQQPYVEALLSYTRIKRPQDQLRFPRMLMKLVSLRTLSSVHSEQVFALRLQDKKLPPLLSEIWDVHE
UniProt P10276, whole entry, looked up: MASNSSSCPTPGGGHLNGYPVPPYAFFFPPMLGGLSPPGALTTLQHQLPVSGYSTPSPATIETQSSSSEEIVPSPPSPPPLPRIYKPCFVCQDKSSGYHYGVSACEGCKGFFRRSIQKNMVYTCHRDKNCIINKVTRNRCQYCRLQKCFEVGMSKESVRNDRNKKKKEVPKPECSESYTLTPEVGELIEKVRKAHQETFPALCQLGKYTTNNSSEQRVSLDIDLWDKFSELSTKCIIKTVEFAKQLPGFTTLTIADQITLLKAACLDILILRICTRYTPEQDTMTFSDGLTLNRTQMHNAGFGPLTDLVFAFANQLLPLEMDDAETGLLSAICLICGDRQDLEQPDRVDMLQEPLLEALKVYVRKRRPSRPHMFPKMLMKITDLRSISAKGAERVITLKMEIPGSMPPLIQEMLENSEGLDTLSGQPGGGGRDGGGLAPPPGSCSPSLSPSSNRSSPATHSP
UniProt P19793: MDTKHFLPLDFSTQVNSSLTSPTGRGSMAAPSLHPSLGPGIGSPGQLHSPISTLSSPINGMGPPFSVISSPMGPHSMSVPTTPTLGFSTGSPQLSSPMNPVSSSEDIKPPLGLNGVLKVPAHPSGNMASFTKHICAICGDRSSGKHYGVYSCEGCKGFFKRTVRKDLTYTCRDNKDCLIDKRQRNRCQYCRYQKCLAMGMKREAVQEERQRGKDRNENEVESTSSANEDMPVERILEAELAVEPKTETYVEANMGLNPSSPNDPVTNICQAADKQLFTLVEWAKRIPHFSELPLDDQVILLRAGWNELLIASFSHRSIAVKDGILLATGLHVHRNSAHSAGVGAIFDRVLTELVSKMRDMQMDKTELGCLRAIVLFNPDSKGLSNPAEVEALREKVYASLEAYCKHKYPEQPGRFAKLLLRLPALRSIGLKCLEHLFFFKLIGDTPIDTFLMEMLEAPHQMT
UniProt Q92753: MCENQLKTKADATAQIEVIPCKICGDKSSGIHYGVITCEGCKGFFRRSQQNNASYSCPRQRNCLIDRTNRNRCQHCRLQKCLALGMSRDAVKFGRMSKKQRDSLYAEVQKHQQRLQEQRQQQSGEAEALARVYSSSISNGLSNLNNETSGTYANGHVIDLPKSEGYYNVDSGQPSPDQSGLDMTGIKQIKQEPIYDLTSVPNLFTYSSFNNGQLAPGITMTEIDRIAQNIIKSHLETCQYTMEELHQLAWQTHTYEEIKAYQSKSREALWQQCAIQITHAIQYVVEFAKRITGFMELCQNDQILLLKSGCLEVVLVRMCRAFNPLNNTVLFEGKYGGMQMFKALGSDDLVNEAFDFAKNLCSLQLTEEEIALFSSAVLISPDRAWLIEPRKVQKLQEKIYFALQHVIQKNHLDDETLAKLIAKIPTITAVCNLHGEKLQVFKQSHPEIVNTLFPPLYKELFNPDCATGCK
UniProt P10827: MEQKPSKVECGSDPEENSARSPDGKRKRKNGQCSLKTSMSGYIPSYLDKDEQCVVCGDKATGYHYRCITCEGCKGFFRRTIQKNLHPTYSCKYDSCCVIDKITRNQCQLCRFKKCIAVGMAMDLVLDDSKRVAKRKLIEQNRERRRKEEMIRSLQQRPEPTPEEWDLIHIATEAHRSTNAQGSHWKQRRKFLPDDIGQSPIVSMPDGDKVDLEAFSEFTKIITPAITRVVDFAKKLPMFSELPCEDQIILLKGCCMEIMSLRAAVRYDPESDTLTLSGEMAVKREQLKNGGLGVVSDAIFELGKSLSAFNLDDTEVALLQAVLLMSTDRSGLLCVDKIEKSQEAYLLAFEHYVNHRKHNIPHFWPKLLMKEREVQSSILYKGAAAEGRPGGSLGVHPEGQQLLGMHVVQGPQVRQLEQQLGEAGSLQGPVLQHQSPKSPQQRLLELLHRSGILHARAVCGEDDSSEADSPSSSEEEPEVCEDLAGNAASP

Columns and labels:
[1] = ATG_GAL4_TRANS: Attagene TRANS-FACTORIAL HepG2 Assay for GAL4 (Internal Marker) (AID 2282976); settings: HepG2 Attagene TRANS GAL4 internal marker reporter
Procedure, shortened: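 RT-PCR/capillary electrophoresis readout of reporter mRNA. HepG2, transient MRTU transfection (GAL4-UAS reporters), 24 h compound exposure. Background-control endpoint, positive direction vs DMSO baseline.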

[2] = target: Hepatocyte nuclear factor 4-alpha (Homo sapiens) (UniProt P41235); experiment: ATG_HNF4a_TRANS: Attagene TRANS-FACTORIAL HepG2 Assay for human Hepatocyte Nuclear Factor 4 alpha (HNF4a) (AID 2282982); settings: HepG2 HNF4a transactivation reporter, mRNA readout
Procedure, shortened: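 In this trans-factorial format, a chimeric HNF4a-GAL4 fusion drives a GAL4-UAS reporter in transfected HepG2 liver cells. After 24 h treatment, reporter mRNA induction is measured by RT-PCR with capillary electrophoresis, relative to DMSO.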

[3] = target: Nuclear receptor subfamily 4 group A member 2 (Homo sapiens) (UniProt P43354); experiment: ATG_NURR1_TRANS: Attagene TRANS-FACTORIAL HepG2 Assay for human Nuclear Receptor Related Protein 1 (NURR1) (AID 2282985); settings: HepG2 Attagene TRANS reporter, mRNA readout
Procedure, shortened: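 Chimeric NR-Gal4 fusion activity measured in HepG2 after 24 h treatment. Reporter transcripts detected by RT-PCR and capillary electrophoresis fluorescence; positive-direction curve fitting against DMSO.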

[4] = target: human Peroxisome Proliferator-activated Receptor alpha (PPARa), PPARA (gene 5465) (UniProt Q07869); experiment: ATG_PPARa_TRANS: Attagene TRANS-FACTORIAL HepG2 Assay for human Peroxisome Proliferator-activated Receptor alpha (PPARa) (AID 2283001);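 for AC50: potency for gain of reporter signal over DMSO so agonist or activator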
Procedure, shortened: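 Cells (HepG2) are transfected with multiple reporter transcription units, exposed to chemical for 24 h, then total RNA is reverse-transcribed and amplified. Labelled products are quantified by capillary electrophoresis; induction is referenced to DMSO.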

[5] = target: human Retinoic Acid Receptor beta (RARb), RARB (gene 5915) (UniProt P10826); experiment: ATG_RARb_TRANS: Attagene TRANS-FACTORIAL HepG2 Assay for human Retinoic Acid Receptor beta (AID 2283004)
Procedure, shortened: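 Readout is reporter mRNA induction: RNA reverse-transcribed, PCR-amplified, FAM-labelled, HpaI-cut and resolved by capillary electrophoresis. Transiently transfected HepG2 cells carrying exogenous NR–Gal4 chimeras were dosed for 24 h; activity fitted upward relative to DMSO.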

[6] = target: human Retinoic Acid Receptor gamma (RARg), RARG (gene 5916) (UniProt P13631); experiment: ATG_RARg_TRANS: Attagene TRANS-FACTORIAL HepG2 Assay for human Retinoic Acid Receptor gamma (RARg) (AID 2283009);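 for AC50: AC50 is for reporter induction above DMSO meaning RARg activation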
Procedure, shortened: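 TRANS format measured activity of exogenous NR-GAL4 fusion (RARg) in transfected HepG2 liver cells after 24 h dosing. Induced reporter RNA was detected by RT-PCR/capillary electrophoresis fluorescence, analysed in the positive direction against DMSO.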

[7] = target: human RAR-related Orphan Receptor gamma (RORg), RORC (gene 6097) (UniProt P51449); experiment: ATG_RORg_TRANS: Attagene TRANS-FACTORIAL HepG2 Assay for human RAR-related Orphan Receptor gamma (RORg) (AID 2283011);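 for AC50: potency for induction of reporter transcripts above DMSO so activators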
Procedure, shortened: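 Transient MRTU transfection of HepG2 (TRANS format, exogenous NR-Gal4 chimera). 24 h dosing. Total RNA → oligo(dT) RT → PCR → 6-FAM labelling → HpaI cut → CE. Gain vs DMSO.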

[8] = target: human Retinoid X Receptor beta (RXRb), RXRB (gene 6257) (UniProt P28702); experiment: ATG_RXRb_TRANS: Attagene TRANS-FACTORIAL HepG2 Assay for human Retinoid X Receptor beta (RXRb) (AID 2283013)
Procedure, shortened: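 Chimeric receptor-Gal4 activity was assessed in transiently transfected human HepG2 cells after 24 h exposure. Transcripts from GAL4-UAS reporters were quantified by fluorescent RT-PCR and capillary electrophoresis, with DMSO as negative control and baseline.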

[9] = TOX21_p53_BLA_p2_viability: Viability Assessment in the Tox21 HCT-116 p53 Agonism Beta-lactamase Assay, Phase 2 (AID 2283591);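 note: actives lower the ATP signal meaning cytotoxicity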
Procedure, shortened: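 HCT-116 p53-bla cells (4000/well) rested 5 h at 37C, then received compounds in DMSO (217-fold dilution) for 16 h at 37C, 5% CO2. After the CCF4 read, CellTiter-Glo was added; ATP luminescence was read after 30 min at room temperature.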

[10] = TOX21_p53_BLA_p3_viability: Viability Assessment in the Tox21 HCT-116 p53 Agonism Beta-lactamase Assay, Phase 3 (AID 2283593);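 note: cells exposed to compound for 16 h before reading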
Procedure, shortened: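 HCT-116 cells (4000/well) rested 5 h at 37C, then got DMSO compounds by pin tool (217-fold dilution) for 16 h at 37C, 5% CO2. After the bla read, CellTiter-Glo was added and luminescence read at 30 min, room temperature.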

[11] = TOX21_p53_BLA_p4_viability: Viability Assessment in the Tox21 HCT-116 p53 Agonism Beta-lactamase Assay, Phase 4 (AID 2283597);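 note: hits lower the luminescence signal meaning cytotoxicity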
Procedure, shortened: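 ATP content by CellTiter-Glo luminescence, 30 min RT, read after the beta-lactamase ratio step. Cells: HCT116, 4000/well, compound added after 5 h, exposure 16 h at 37C. Signal loss = reduced viability.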

[12] = TOX21_p53_BLA_p5_viability: Viability Assessment in the Tox21 HCT-116 p53 Agonism Beta-lactamase Assay, Phase 5 (AID 2283600)
Procedure, shortened: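 ATP luminescence (CellTiter-Glo, 30 min, RT) served as the viability read-out, with loss of signal indicating cytotoxicity. Compounds in DMSO were pinned at a 217-fold dilution onto 4000 cells/well and incubated 16 h, 37C.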

[13] = target: Cellular tumor antigen p53 (Homo sapiens) (UniProt P04637); experiment: TOX21_p53_BLA_p4_ratio: Tox21 HCT-116 p53 Agonism Beta-lactamase Assay, Ratio, Phase 4 (AID 2283601)
Procedure, shortened: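 HCT116 cells carrying an inducible beta-lactamase reporter were plated at 4000 cells/well, rested 5 h, then exposed to compounds in DMSO (217-fold dilution) for 16 h at 37C. CCF4-AM substrate was loaded 2 h at room temperature; 460/530 nm emission ratio scored gain-of-signal versus DMSO.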

[14] = ACEA_ER_AUC_viability: ACEA Biosciences xCELLigence Real-Time Cell Analysis on Estrogen Receptor Agonism for Viability (AID 2283782);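 note: hit means loss of impedance signal meaning reduced cell growth or viability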
Procedure, shortened: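 Continuous-exposure impedance cell analysis uses T-47D cells in charcoal-stripped serum, eight 1:4 dilutions topping at 100 uM final, biological duplicate. Area under the growth curve at 80 h is fitted against DMSO baseline.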

[15] = target: Oxysterols receptor LXR-alpha (Homo sapiens) (UniProt Q13133); experiment: ATG_LXRa_TRANS: Attagene TRANS-FACTORIAL HepG2 Assay for human Liver X Receptor alpha (LXRa) (AID 2282980); settings: HepG2 Attagene TRANS reporter, LXRa transactivation
Procedure, shortened: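 Read-out: reporter transcript levels by RT-PCR plus capillary electrophoresis, fluorescence intensity. Transiently transfected HepG2, exogenous NR-GAL4 chimera, GAL4-UAS reporters; 24 h compound exposure. Activity = increase over DMSO negative control.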

[16] = target: Oxysterols receptor LXR-beta (Homo sapiens) (UniProt P55055); experiment: ATG_LXRb_TRANS: Attagene TRANS-FACTORIAL HepG2 Assay for human Liver X Receptor beta (LXRb) (AID 2282981); settings: HepG2 Attagene TRANS GAL4-LXRb reporter, mRNA
Procedure, shortened: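 Measures induction of a Gal4-driven reporter transcript in HepG2 cells expressing an exogenous LXRb-Gal4 fusion. Cells are exposed to compound for 24 h before RNA isolation and RT-PCR with capillary electrophoresis detection.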

[17] = target: Retinoic acid receptor alpha (Homo sapiens) (UniProt P10276); experiment: ATG_RARa_TRANS: Attagene TRANS-FACTORIAL HepG2 Assay for human Retinoic Acid Receptor alpha (RARa) (AID 2283005);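 for AC50: potency for increased reporter signal meaning RARa activation over DMSO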
Procedure, shortened: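 HepG2 cells transiently transfected with multiple reporter units expressing chimeric RARα-GAL4 fusion, with GAL4-UAS-driven reporters. After 24 h compound exposure, reporter mRNA induction quantified by RT-PCR and capillary electrophoresis with fluorescent labeling; gain-of-signal fitted relative to DMSO control.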

[18] = target: Retinoic acid receptor RXR-alpha (Homo sapiens) (UniProt P19793); experiment: ATG_RXRa_TRANS: Attagene TRANS-FACTORIAL HepG2 Assay for human Retinoid X Receptor alpha (RXRa) (AID 2283012)
Procedure, shortened: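 Measures exogenous chimeric NR-GAL4 activity in transfected HepG2 liver cells after 24 h of dosing. Induced reporter mRNA was detected by RT-PCR with capillary electrophoresis, and gain of signal was analysed against DMSO.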

[19] = target: human RAR-related Orphan Receptor beta (RORb), RORB (gene 6096) (UniProt Q92753); experiment: ATG_RORb_TRANS: Attagene TRANS-FACTORIAL HepG2 Assay for human RAR-related Orphan Receptor beta (RORb) (AID 2283010);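 for AC50: potency for increased reporter mRNA meaning activation of RORb-Gal4 chimera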
Procedure, shortened: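 Transfect HepG2 with multiple GAL4-UAS reporter transcription units; dose chemicals for 24 h; isolate RNA, reverse-transcribe and PCR-amplify reporter sequences; label, digest and resolve fragments by capillary electrophoresis; fit increases relative to DMSO.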

[20] = target: human Thyroid Receptor alpha (THRa1), THRA (gene 7067) (UniProt P10827); experiment: ATG_THRa1_TRANS: Attagene TRANS-FACTORIAL HepG2 Assay for human Thyroid Receptor alpha (THRa1) (AID 2283014)
Procedure, shortened: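 Transient HepG2 transfection, NR-Gal4 chimera driving GAL4-UAS reporters; 24 h compound exposure; total RNA, oligo(dT) RT, PCR, fluorescent primer extension, capillary electrophoresis. Upward direction vs DMSO control.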

Measured: AC50

CC(CN=Cc1ccccc1O)N=Cc1ccccc1O (centres undefined)
inactive: [3] | [4] | [5] | [9] | [10]
inconclusive: [1] 100 µM | [2] 100 µM | [6] 100 µM | [7] 100 µM | [8] 177 µM | [11] 46.1 µM | [12] 46.1 µM | [13] 46.1 µM | [14] 10.7 µM

CCCCCCC(O)CCOC(C)=O (centres undefined)
inconclusive: [16] 50 µM | [3] 50 µM | [4] 50 µM | [19] 6.84 µM | [20] 50 µM | [9] 114 µM | [11] 8.55 µM
inactive: [2] | [7] | [12]

CCCCOCCOCCOCc1cc2c(cc1CCC)OCO2
inactive: [3] | [5] | [17] | [6] | [14]
inconclusive: [15] 82.4 µM | [16] 1.48 µM | [19] 83.5 µM | [20] 50 µM

3 compounds already listed, ordered by molecular weight, high to low.
CCCCOCCOCCOCc1cc2c(cc1CCC)OCO2
inactive: [3] | [5] | [17] | [6] | [14]
inconclusive: [15] 82.4 µM | [16] 1.48 µM | [19] 83.5 µM | [20] 50 µM

CC(CN=Cc1ccccc1O)N=Cc1ccccc1O (centres undefined)
inactive: [3] | [4] | [5] | [9] | [10]
inconclusive: [1] 100 µM | [2] 100 µM | [6] 100 µM | [7] 100 µM | [8] 177 µM | [11] 46.1 µM | [12] 46.1 µM | [13] 46.1 µM | [14] 10.7 µM

CCCCCCC(O)CCOC(C)=O (centres undefined)
inconclusive: [16] 50 µM | [3] 50 µM | [4] 50 µM | [19] 6.84 µM | [20] 50 µM | [9] 114 µM | [11] 8.55 µM
inactive: [2] | [7] | [12]

Carrying on.

CC(=O)CC(C)(C)C1CCCCC1
inactive: [2] | [5] | [17] | [20] | [14]
inconclusive: [15] 100 µM | [16] 100 µM | [3] 100 µM | [4] 100 µM | [19] 7.62 µM | [7] 100 µM | [9] 46.1 µM | [10] 46.1 µM

CO[Si](CCCn1c(=O)n(CCC[Si](OC)(OC)OC)c(=O)n(CCC[Si](OC)(OC)OC)c1=O)(OC)OC
inactive: [2] | [5] | [10]
active: [14] 21.7 µM
inconclusive: [15] 74.5 µM | [16] 74.5 µM | [3] 74.5 µM | [4] 20.3 µM | [17] 74.5 µM | [6] 121 µM | [19] 74.5 µM | [7] 74.5 µM | [9] 34.3 µM | [12] 34.3 µM

C=C[C@@H](C)CCC=C(C)C
inactive: [15] | [16] | [3] | [19] | [7] | [20]
inconclusive: [2] 100 µM | [17] 100 µM | [6] 100 µM | [18] 100 µM | [8] 2.32 µM | [9] 46.1 µM | [10] 46.1 µM | [11] 86.1 µM

C=CC(C)C#N (centres undefined)
inactive: [15] | [3] | [5] | [17] | [6]
inconclusive: [16] 100 µM | [2] 19.8 µM | [4] 100 µM | [19] 0.0823 µM | [18] 100 µM

CC(C)(O)c1ccc(CNC(=O)c2cccnc2Oc2ccc(F)cc2)cc1
inactive: [15] | [16] | [5] | [20] | [10] | [12]
inconclusive: [2] 100 µM | [3] 100 µM | [17] 162 µM | [7] 0.781 µM | [9] 0.00844 µM | [13] 46.1 µM | [14] 50 µM

C=Cc1ccc(C)cc1
inconclusive: [15] 100 µM | [2] 100 µM | [3] 100 µM | [4] 100 µM | [5] 100 µM | [17] 100 µM | [19] 100 µM | [18] 100 µM | [12] 47.2 µM | [13] 46.1 µM
inactive: [7] | [9] | [10]
